# Results as given in the supplement of paper PMC11438910.
# This is one part of the list. Most of these values are background signal.
# B1: 4-127.5 (protein)
# chain 1: QVQLQESGPGLVKPSETLSLTCAVSGYSISSGYGWSWIRQPPGKGLEWIGYIGGSDSSTNYNPSLKSRVTISKDTSKNQLSLKLRSVTAADTAVYYCGSRGAVAGLGGLDSWGQGLLVTVSS
# chain 2: QSVLTQPPSVSGAPGQRVTISCTGSSSNIGAGYGVQWYQQLPGTAPKLLIYENNKRPSGVFDRFSGSQSGTSGSLTITGLQSEDEADYYCQSYDSSLKAVLFGGGTRLTVL
# Assays:
# Assay in all cases: fluorescence intensity of antibody binding to polysaccharide-coupled beads; higher = stronger binding
# [1] = biological target: pneumococcal polysaccharide Pn16F
# [2] = biological target: pneumococcal polysaccharide Pn17A
# [3] = biological target: pneumococcal polysaccharide Pn17F
# [4] = biological target: pneumococcal polysaccharide Pn18A
# [5] = biological target: pneumococcal polysaccharide Pn18B
# [6] = biological target: pneumococcal polysaccharide Pn18C
# [7] = biological target: pneumococcal polysaccharide Pn18F
# [8] = biological target: pneumococcal polysaccharide Pn19A
# [9] = biological target: pneumococcal polysaccharide Pn19B
# [10] = biological target: pneumococcal polysaccharide Pn19C
# [11] = biological target: pneumococcal polysaccharide Pn19F
# [12] = biological target: pneumococcal polysaccharide Pn2
# [13] = biological target: pneumococcal polysaccharide Pn20A
# [14] = biological target: pneumococcal polysaccharide Pn20B
# [15] = biological target: pneumococcal polysaccharide Pn21
# [16] = biological target: pneumococcal polysaccharide Pn22A
# [17] = biological target: pneumococcal polysaccharide Pn22F
# [18] = biological target: pneumococcal polysaccharide Pn23A
# [19] = biological target: pneumococcal polysaccharide Pn23B
# [20] = biological target: pneumococcal polysaccharide Pn23F
# [21] = biological target: pneumococcal polysaccharide Pn24A
# [22] = biological target: pneumococcal polysaccharide Pn24B
# [23] = biological target: pneumococcal polysaccharide Pn24F
# [24] = antibody concentration 81.7561 ng/mL
# [25] = antibody concentration 437.17 ng/mL
# [26] = antibody concentration 2337.65 ng/mL
# [27] = antibody concentration 12500 ng/mL
# [28] = antibody concentration 0.1 ng/mL
# [29] = antibody concentration 0.534724 ng/mL
# [30] = antibody concentration 2.8593 ng/mL
# [31] = antibody concentration 15.2894 ng/mL
binder,measurement,setting,value
B1,fluorescence intensity,[1]; [24],25 MFI
same,fluorescence intensity,[1]; [25],26 MFI
same,fluorescence intensity,[1]; [26],31.5 MFI
same,fluorescence intensity,[1]; [27],48.5 MFI
same,fluorescence intensity,[2]; [28],21.5 MFI
same,fluorescence intensity,[2]; [29],22 MFI
same,fluorescence intensity,[2]; [30],21 MFI
same,fluorescence intensity,[2]; [31],21 MFI
same,fluorescence intensity,[2]; [24],21.5 MFI
same,fluorescence intensity,[2]; [25],21 MFI
same,fluorescence intensity,[2]; [26],22.2 MFI
same,fluorescence intensity,[2]; [27],29 MFI
same,fluorescence intensity,[3]; [28],28.5 MFI
same,fluorescence intensity,[3]; [29],26.8 MFI
same,fluorescence intensity,[3]; [30],26.8 MFI
same,fluorescence intensity,[3]; [31],26 MFI
same,fluorescence intensity,[3]; [24],26 MFI
same,fluorescence intensity,[3]; [25],25.8 MFI
same,fluorescence intensity,[3]; [26],29.5 MFI
same,fluorescence intensity,[3]; [27],34.5 MFI
same,fluorescence intensity,[4]; [28],24 MFI
same,fluorescence intensity,[4]; [29],24 MFI
same,fluorescence intensity,[4]; [30],25 MFI
same,fluorescence intensity,[4]; [31],25.5 MFI
same,fluorescence intensity,[4]; [24],24.5 MFI
same,fluorescence intensity,[4]; [25],24.5 MFI
same,fluorescence intensity,[4]; [26],26.5 MFI
same,fluorescence intensity,[4]; [27],37.5 MFI
same,fluorescence intensity,[5]; [28],30.5 MFI
same,fluorescence intensity,[5]; [29],32 MFI
same,fluorescence intensity,[5]; [30],31.5 MFI
same,fluorescence intensity,[5]; [31],30.5 MFI
same,fluorescence intensity,[5]; [24],31 MFI
same,fluorescence intensity,[5]; [25],32.2 MFI
same,fluorescence intensity,[5]; [26],37.5 MFI
same,fluorescence intensity,[5]; [27],50.5 MFI
same,fluorescence intensity,[6]; [28],20 MFI
same,fluorescence intensity,[6]; [29],18.5 MFI
same,fluorescence intensity,[6]; [30],20.2 MFI
same,fluorescence intensity,[6]; [31],19.2 MFI
same,fluorescence intensity,[6]; [24],20 MFI
same,fluorescence intensity,[6]; [25],20.5 MFI
same,fluorescence intensity,[6]; [26],24 MFI
same,fluorescence intensity,[6]; [27],28 MFI
same,fluorescence intensity,[7]; [28],23.5 MFI
same,fluorescence intensity,[7]; [29],25.5 MFI
same,fluorescence intensity,[7]; [30],24.5 MFI
same,fluorescence intensity,[7]; [31],22.5 MFI
same,fluorescence intensity,[7]; [24],25 MFI
same,fluorescence intensity,[7]; [25],25 MFI
same,fluorescence intensity,[7]; [26],33.5 MFI
same,fluorescence intensity,[7]; [27],48.8 MFI
same,fluorescence intensity,[8]; [28],18.5 MFI
same,fluorescence intensity,[8]; [29],19.5 MFI
same,fluorescence intensity,[8]; [30],19 MFI
same,fluorescence intensity,[8]; [31],19.5 MFI
same,fluorescence intensity,[8]; [24],19 MFI
same,fluorescence intensity,[8]; [25],19 MFI
same,fluorescence intensity,[8]; [26],21.5 MFI
same,fluorescence intensity,[8]; [27],26 MFI
same,fluorescence intensity,[9]; [28],30.2 MFI
same,fluorescence intensity,[9]; [29],29.5 MFI
same,fluorescence intensity,[9]; [30],29 MFI
same,fluorescence intensity,[9]; [31],31 MFI
same,fluorescence intensity,[9]; [24],29 MFI
same,fluorescence intensity,[9]; [25],33 MFI
same,fluorescence intensity,[9]; [26],55 MFI
same,fluorescence intensity,[9]; [27],306 MFI
same,fluorescence intensity,[10]; [28],26.8 MFI
same,fluorescence intensity,[10]; [29],24.8 MFI
same,fluorescence intensity,[10]; [30],27 MFI
same,fluorescence intensity,[10]; [31],25.5 MFI
same,fluorescence intensity,[10]; [24],27.5 MFI
same,fluorescence intensity,[10]; [25],26 MFI
same,fluorescence intensity,[10]; [26],42 MFI
same,fluorescence intensity,[10]; [27],200 MFI
same,fluorescence intensity,[11]; [28],26 MFI
same,fluorescence intensity,[11]; [29],26.2 MFI
same,fluorescence intensity,[11]; [30],26.5 MFI
same,fluorescence intensity,[11]; [31],26.5 MFI
same,fluorescence intensity,[11]; [24],27.2 MFI
same,fluorescence intensity,[11]; [25],27.8 MFI
same,fluorescence intensity,[11]; [26],33.5 MFI
same,fluorescence intensity,[11]; [27],35.5 MFI
same,fluorescence intensity,[12]; [28],21 MFI
same,fluorescence intensity,[12]; [29],20.2 MFI
same,fluorescence intensity,[12]; [30],21.5 MFI
same,fluorescence intensity,[12]; [31],21 MFI
same,fluorescence intensity,[12]; [24],21 MFI
same,fluorescence intensity,[12]; [25],21.5 MFI
same,fluorescence intensity,[12]; [26],26 MFI
same,fluorescence intensity,[12]; [27],38.5 MFI
same,fluorescence intensity,[13]; [28],24 MFI
same,fluorescence intensity,[13]; [29],24 MFI
same,fluorescence intensity,[13]; [30],23.5 MFI
same,fluorescence intensity,[13]; [31],25 MFI
same,fluorescence intensity,[13]; [24],24.8 MFI
same,fluorescence intensity,[13]; [25],25 MFI
same,fluorescence intensity,[13]; [26],39.5 MFI
same,fluorescence intensity,[13]; [27],202 MFI
same,fluorescence intensity,[14]; [28],24.5 MFI
same,fluorescence intensity,[14]; [29],24.5 MFI
same,fluorescence intensity,[14]; [30],25 MFI
same,fluorescence intensity,[14]; [31],24.5 MFI
same,fluorescence intensity,[14]; [24],25 MFI
same,fluorescence intensity,[14]; [25],24.2 MFI
same,fluorescence intensity,[14]; [26],27.5 MFI
same,fluorescence intensity,[14]; [27],52.8 MFI
same,fluorescence intensity,[15]; [28],19 MFI
same,fluorescence intensity,[15]; [29],19.5 MFI
same,fluorescence intensity,[15]; [30],18.5 MFI
same,fluorescence intensity,[15]; [31],19.5 MFI
same,fluorescence intensity,[15]; [24],19.5 MFI
same,fluorescence intensity,[15]; [25],19 MFI
same,fluorescence intensity,[15]; [26],21 MFI
same,fluorescence intensity,[15]; [27],25 MFI
same,fluorescence intensity,[16]; [28],23 MFI
same,fluorescence intensity,[16]; [29],21 MFI
same,fluorescence intensity,[16]; [30],21.5 MFI
same,fluorescence intensity,[16]; [31],22 MFI
same,fluorescence intensity,[16]; [24],21.5 MFI
same,fluorescence intensity,[16]; [25],23.5 MFI
same,fluorescence intensity,[16]; [26],29 MFI
same,fluorescence intensity,[16]; [27],80 MFI
same,fluorescence intensity,[17]; [28],31.8 MFI
same,fluorescence intensity,[17]; [29],31 MFI
same,fluorescence intensity,[17]; [30],28.2 MFI
same,fluorescence intensity,[17]; [31],30.5 MFI
same,fluorescence intensity,[17]; [24],32.5 MFI
same,fluorescence intensity,[17]; [25],30.2 MFI
same,fluorescence intensity,[17]; [26],36.2 MFI
same,fluorescence intensity,[17]; [27],39 MFI
same,fluorescence intensity,[18]; [28],24.5 MFI
same,fluorescence intensity,[18]; [29],28.5 MFI
same,fluorescence intensity,[18]; [30],27.2 MFI
same,fluorescence intensity,[18]; [31],25.5 MFI
same,fluorescence intensity,[18]; [24],29.2 MFI
same,fluorescence intensity,[18]; [25],31.5 MFI
same,fluorescence intensity,[18]; [26],54 MFI
same,fluorescence intensity,[18]; [27],98 MFI
same,fluorescence intensity,[19]; [28],33 MFI
same,fluorescence intensity,[19]; [29],32 MFI
same,fluorescence intensity,[19]; [30],32 MFI
same,fluorescence intensity,[19]; [31],32 MFI
same,fluorescence intensity,[19]; [24],31.8 MFI
same,fluorescence intensity,[19]; [25],33.5 MFI
same,fluorescence intensity,[19]; [26],35 MFI
same,fluorescence intensity,[19]; [27],47 MFI
same,fluorescence intensity,[20]; [28],17.5 MFI
same,fluorescence intensity,[20]; [29],19.2 MFI
same,fluorescence intensity,[20]; [30],18.8 MFI
same,fluorescence intensity,[20]; [31],17.5 MFI
same,fluorescence intensity,[20]; [24],18.2 MFI
same,fluorescence intensity,[20]; [25],20.5 MFI
same,fluorescence intensity,[20]; [26],22.8 MFI
same,fluorescence intensity,[20]; [27],24.5 MFI
same,fluorescence intensity,[21]; [28],16.5 MFI
same,fluorescence intensity,[21]; [29],15 MFI
same,fluorescence intensity,[21]; [30],15.8 MFI
same,fluorescence intensity,[21]; [31],16 MFI
same,fluorescence intensity,[21]; [24],16 MFI
same,fluorescence intensity,[21]; [25],16.2 MFI
same,fluorescence intensity,[21]; [26],18.5 MFI
same,fluorescence intensity,[21]; [27],33.8 MFI
same,fluorescence intensity,[22]; [28],18.5 MFI
same,fluorescence intensity,[22]; [29],19 MFI
same,fluorescence intensity,[22]; [30],20.5 MFI
same,fluorescence intensity,[22]; [31],19 MFI
same,fluorescence intensity,[22]; [24],20.2 MFI
same,fluorescence intensity,[22]; [25],20.5 MFI
same,fluorescence intensity,[22]; [26],26.5 MFI
same,fluorescence intensity,[22]; [27],65 MFI
same,fluorescence intensity,[23]; [28],19.8 MFI
same,fluorescence intensity,[23]; [29],18.8 MFI
same,fluorescence intensity,[23]; [30],18 MFI
same,fluorescence intensity,[23]; [31],16.5 MFI
same,fluorescence intensity,[23]; [24],18.5 MFI
same,fluorescence intensity,[23]; [25],22 MFI
same,fluorescence intensity,[23]; [26],31.5 MFI
same,fluorescence intensity,[23]; [27],58 MFI
